Source: PubChem BioAssay AID2685 (National Center for Advancing Translational Sciences (NCATS), 2010)
Some of the results follow. Further columns of the screen follow, without active or inactive calls. Most of these compounds were active or inconclusive in the main read-out, so they are no random draw. Words in brackets tell the shape of the fitted curve; partial curves, single points and poor fits give uncertain potencies.

Experiment: qHTS Assay for Lipid Storage Modulators in Drosophila S3 Cells;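 on cell number change: cells counted by Cell Tracker Red CMTPX staining in the red channel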
Details: BODIPY lipid droplet fluorescence, 18-24 h; for cell number change: measured here: cell count max response, cells fed with added oleic acid
In short: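 Drosophila S3 cells loaded with oleic acid (400 uM, as added) and compounds at several concentrations; lipid droplets imaged by 488-nm laser-scanning cytometry, 500–530 nm intensity and object ratio to cell channel. Percent activity normalized to 20 uM Triacsin C.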

[1] = measured here: lipid fluorescence (Fed channel) AC50, cells fed with added oleic acid
[2] = measured here: cell number channel AC50, cells fed with added oleic acid

Row | SMILES | cell number change | AC50 [1] | AC50 [2]
1 | CN1CCN(c2ccc(NC(=S)NC(=O)/C=C/c3ccco3)cc2)CC1 | 5.24% | – | –
2 | COc1ccc(C(=O)Nc2ccc(Cl)cc2C(=O)NCCO)cc1 | -15% | 11600 nM [rising, partial curve] | –
3 | CSc1ccc(OCC(=O)Nc2ccc(N3CCOCC3)c(Cl)c2)cc1 | -20.4% | 29100 nM [falling, single point] | –
4 | C=CCN=C1N[C@@H](c2ccc(Br)cc2)C(C(=O)OC)=C(C)N1Cc1ccccc1 | 3.06% | 259 nM [falling, full curve, poor fit] | –
5 | COc1ccc2sc(NC(=O)NC(=O)c3c(Cl)cccc3Cl)nc2c1 | -5.06% | 4.61 nM [falling, full curve, poor fit] | –
6 | CCC(C(=O)OCC(=O)Nc1c(C)n(C)n(-c2ccccc2)c1=O)c1ccccc1 (stereo unspecified) | -129% | 164 nM [falling, full curve, poor fit] | –
7 | CCOC(=O)c1ccc(N2CCCCC2)c(NS(=O)(=O)c2cccc(C(F)(F)F)c2)c1 | 11.4% | 14600 nM [rising, partial curve, poor fit] | –
8 | CCN1C(=O)C2(C(C#N)=C(N)Oc3c2c(C)nn3-c2ccccc2)c2ccccc21 (stereo unspecified) | 4.23% | 2310 nM [rising, partial curve] | –
9 | COc1cc(C(=O)NCC(=O)NC(C)c2ccc(-n3ccnc3)cc2)cc(OC)c1OC (stereo unspecified) | -13.8% | – | –
10 | CCN(Cc1ccccc1)C(=O)c1ccc(C(=O)N(CC)Cc2ccccc2)cc1 | -30.1% | – | 13000 nM [falling, single point]
11 | O=C(CNC(c1ccccc1)c1ccccc1)Nc1ccccc1F | -2.56% | 116 nM [rising, single point] | –
12 | COC(=O)c1c(-c2ccc(OC)cc2)oc2ccccc12 | 18.1% | – | –
13 | CCc1nc2sc(C(C)=O)c(N)c2c2c1CCCC2 | 13.2% | 2590 nM [rising, partial curve, poor fit] | 6510 nM [rising, single point]
14 | O=C(Nc1nc2c(s1)CN(Cc1ccccc1)CC2)c1cccc(S(=O)(=O)N2CCc3ccccc32)c1 | -77% | 731 nM [falling, full curve] | 2910 nM [falling, partial curve]
15 | Nc1nn(S(=O)(=O)c2ccccc2)cc1-c1ccc([N+](=O)[O-])cc1 | 32.3% | 1460 nM [rising, single point] | 3260 nM [rising, partial curve]
16 | Cc1cc([N+](=O)[O-])nn1Cc1ccc(C(=O)N/N=C/c2ccc(N(C)C)cc2)cc1 | – | 580 nM [rising, full curve, poor fit] | –

Excerpt: compounds 12–13
Row | SMILES | cell number change | AC50 [1] | AC50 [2]
12 | COC(=O)c1c(-c2ccc(OC)cc2)oc2ccccc12 | 18.1% | – | –
13 | CCc1nc2sc(C(C)=O)c(N)c2c2c1CCCC2 | 13.2% | 2590 nM [rising, partial curve, poor fit] | 6510 nM [rising, single point]
